Results on 58 compounds are retold here after the supplement of paper PMC12578635.

Each structure is given as a SMILES string. The list shows a part of the results. No stated cut-off is given here; in the data, active = 150% or more and inactive = the rest. Repeats are few or missing, and single values can be far off.

For this experiment, the system named is Staphylococcus aureus JE2-lux inside RAW 264.7 macrophages. Briefly: intracellular bacterial bioluminescence relative to DMSO vehicle; higher = higher intracellular bacterial metabolic activity. As to conditions: 10 µM; treatment time 4 h; gentamicin 50 µg/ml.
For the compound `O=C(Nc1ccc2sc(NC(=O)C3CCCCC3)nc2c1)c1cccnc1`, the intracellular bacterial bioluminescence is inactive: 113%.
Take `O=S(=O)(c1ccc(F)cc1)N1CCN(c2cnccn2)CC1`: the intracellular bacterial bioluminescence was inactive: 84.7%.
As for `N#Cc1ccc(C(=O)Nc2cccc3c2C(=O)c2ccccc2C3=O)cc1`, the intracellular bacterial bioluminescence is inactive: 114%.
In the case of `COc1ccc(NS(=O)(=O)c2cc(-c3ccno3)oc2C)cc1Cl` it was inactive: 94.1%; in that of `CC1(C)CC(=O)c2sc(NC(=O)c3cccc(N4C(=O)CCC4=O)c3)nc2C1`, inactive: 130%; in that of `CCN(CC)S(=O)(=O)c1ccc(C(=O)Nc2nnc(-c3cccc(S(C)(=O)=O)c3)o2)cc1`, inactive: 105%.
In the case of `COc1ccccc1-n1c(=O)[nH]c2c(C(N)=O)nc(-c3cccc(OC)c3O)nc21` it was inactive: 117%; in that of `CN(C(=O)c1cnc(N2CCCCC2)c2ccccc12)C1CCCCC1`, inactive: 105%.
Turning to `C=CCNC(=O)Cn1nc(-c2cc(C)oc2C)cc(N)c1=O`, the intracellular bacterial bioluminescence is inactive: 120%.
For `CCCCC1CCC(C(=O)Oc2cc(C)[nH]c(=O)c2[N+](=O)[O-])CC1` (stereo not drawn) the value was inactive: 105%; for `CCc1nnc2ccc(C(=O)NCc3ccc(Cl)cc3)cn12`, inactive: 86.7%.
`O=C(COc1ccccc1)Nc1nc2c(cc3c4c(cccc42)CC3)s1`: the intracellular bacterial bioluminescence is inactive: 112%.
Consider `Cc1ccc(S(=O)(=O)N2CCCc3ccc(NC(=O)c4ccc5c(c4)OCO5)cc32)cc1`, for which the intracellular bacterial bioluminescence is inactive: 149%.
As to `Cc1cc(C)c2sc(NNC(=O)c3nc4ccccc4s3)nc2c1`, the intracellular bacterial bioluminescence was inactive: 104%.
As to `Cc1nn(C)c2ncc(C(=O)NC3CC3)c(NCc3ccccc3)c12`, the intracellular bacterial bioluminescence was inactive: 115%.
Regarding `O=C1N/C(=N\c2ccccc2)c2c1cccc2[N+](=O)[O-]`, the intracellular bacterial bioluminescence was inactive: 75.7%.
For `CC1CN(CCc2ccccc2)c2nc3c(c(=O)n(CC(=O)OCc4ccccc4)c(=O)n3C)n2C1` (stereo not drawn) the value was inactive: 99.4%; for `CCOc1ccc(-c2csc3c(=O)n(C)cnc23)cc1OCC`, inactive: 80.4%; for `CC1CN(S(=O)(=O)c2ccc(C(=O)NNC(=O)c3ccc4ncsc4c3)cc2)CC(C)O1` (stereo not drawn), inactive: 101%.
For `CCOc1ccc(NC(=O)c2ccc(CNc3nc4[nH]c(C)cc(=O)n4n3)cc2)cc1` the value was inactive: 81.8%.
For the compound `N=C1SCC(=O)N1c1ncc(Cc2ccccc2F)s1`, the intracellular bacterial bioluminescence was inactive: 91.7%.
For `Cn1c(SCC(=O)c2ccc(F)cc2)ncc(C(=O)Nc2ccccc2)c1=O` the value was inactive: 92.3%; for `N=C1NC(=O)C(CC(=O)Nc2cccc3ccccc23)S1` (stereo not drawn), inactive: 104%; for `COc1ccc(CN2Cc3ccncc3C2=O)c(OC)c1`, inactive: 105%.
In the case of `COc1ccc(NC(=O)COc2nc(C)nc3onc(-c4ccccc4)c23)c(OC)c1` it was inactive: 12.9%; in that of `O=c1cc(-c2ccc(F)cc2)nc(N2CCN(Cc3ccc4c(c3)OCO4)CC2)[nH]1`, inactive: 53.4%; in that of `Cc1ccc([N+](=O)[O-])cc1NC(=O)CC(C(=O)O)N1CCN(C)CC1` (stereo not drawn), inactive: 134%.
In the case of `CCOC(=O)CCCSc1nc2sc3c(c2c(=O)[nH]1)CCC3`, the intracellular bacterial bioluminescence was inactive: 122%.
For `CC(=O)NCCNc1nc2c(-c3cccc(C(F)(F)F)c3)nnn2c2ccccc12` the value was inactive: 103%; for `O=C(CSc1nnc(Cc2ccccc2)c(=O)[nH]1)Nc1cccc(C(F)(F)F)c1`, inactive: 108%; for `O=C(COc1coc(CN2CCc3ccccc3C2)cc1=O)NCc1ccc2c(c1)OCO2`, inactive: 111%.
In the case of `COc1ccc(-c2nc(OCC(=O)Nc3cccc(OC)c3)c3c4c(sc3n2)CCCC4)cc1` it was inactive: 105%; in that of `N#CC1=C(N)Oc2c(oc(CO)cc2=O)C1c1ccncc1` (stereo not drawn), inactive: 108%; in that of `CCOc1ccccc1NC(=O)c1sc2nc(-c3ccc(OC)cc3)cn2c1C`, inactive: 118%.
`CCOC(=O)c1cccc(NC(=O)Cn2cc(-c3nnc(CN4CCCCC4)o3)c3ccccc32)c1`: the intracellular bacterial bioluminescence was inactive: 31%.
For `COc1ccc2sc(Nc3ccc(F)cc3F)nc2c1` the value was inactive: 96.8%; for `Cc1cc(NC(=O)Cn2nnc(-c3ccc4c(c3)OCO4)n2)no1`, inactive: 114%.
As for `COc1ccc(/N=c2\scc(-c3ccc(OC)c(OC)c3)n2CCCO)cc1`, the intracellular bacterial bioluminescence is inactive: 81.6%.
Take `COc1ccc(C(=O)N(Cc2ccccc2)c2nc3[nH]c(C)cc(=O)n3n2)cc1`: the intracellular bacterial bioluminescence is inactive: 79.9%.
Regarding `O=C1Cc2cc(NS(=O)(=O)c3ccc4c(c3)NC(=O)CO4)ccc2N1`, the intracellular bacterial bioluminescence is inactive: 111%.
Consider `Cn1c(=O)c2c(nc3n2CCCN3Cc2ccco2)n(C)c1=O`, for which the intracellular bacterial bioluminescence was inactive: 109%.
For the compound `O=C1c2cccc3cccc(c23)C(=O)N1CCCc1nc2sc3c(c2c(=O)[nH]1)CCCC3`, the intracellular bacterial bioluminescence was inactive: 49.2%.
For `CC(=O)N1c2ccc(S(=O)(=O)NCCc3n[nH]c(-c4ccc(F)cc4)n3)cc2CC1C` (stereo not drawn) the value was inactive: 107%; for `O=C(CCCN1C(=O)/C(=C\c2ccco2)SC1=S)Nc1ccccc1C(=O)O`, inactive: 100%.
For `Cc1sc(NC(=O)c2nc3ccccc3s2)c(C(N)=O)c1C` the value was inactive: 133%; for `CCS(=O)(=O)c1ccc(C(=O)Nc2nc3cc(C)cc(C)c3s2)cc1`, inactive: 124%; for `O=C(CSc1nc2sc3c(c2c(=O)[nH]1)CCC3)Nc1ccccc1C(F)(F)F`, inactive: 82.1%.
In the case of `COc1cc2ncc(C(=O)NCCO)c(O)c2cc1OC` it was active: 156%.
As for `CCOC(=O)c1oc2ccccc2c1NC(=O)/C=C\c1ccc2c(c1)OCO2`, the intracellular bacterial bioluminescence was inactive: 109%.
In the case of `O=C(COc1cccc2c1CCNC2=O)Nc1ccccc1C(F)(F)F` it was inactive: 89.4%; in that of `COc1ccc(CCNC(=O)Cn2cnc3c(nnn3-c3cccc(Cl)c3)c2=O)cc1OC`, inactive: 99.2%; in that of `O=C(NCc1ccccc1)c1cc2cc([N+](=O)[O-])ccc2s1`, inactive: 65.2%.
As for `Cc1cc(NC(=O)CSc2nnc(-c3ccncc3)o2)no1`, the intracellular bacterial bioluminescence is inactive: 69.9%.
In the case of `CC1CCCN(S(=O)(=O)c2ccc(C(=O)Nc3ccccc3C#N)cc2)C1` (stereo not drawn) it was inactive: 51.1%.
Regarding `Cc1cc(C)c2cc(CN(Cc3cccnc3)C(=O)Nc3ccccc3)c(Cl)nc2c1`, the intracellular bacterial bioluminescence was inactive: 81.7%.
For `O=C(CSc1nc(-c2ccccc2)cc(=O)[nH]1)N1CCN(c2ccccc2)CC1` the value was inactive: 121%.
Take `COc1cccc2cc(C(=O)Nc3ccc(N4CCOCC4)c(Cl)c3)c(=O)oc12`: the intracellular bacterial bioluminescence is inactive: 106%.
For `CCOc1ccc(-n2cc(-c3ccccc3)c3c(N4CCN(C(=O)COc5ccccc5C)CC4)ncnc32)cc1` the value was inactive: 83.9%.
